Results are given in words; binding and its absence hold for the method and conditions named. A result given as binding can be weak or reduced; the word gives no strength.
Molecular target: murine rBAT (murine) (UniProt Q91WV7)
Assay: negative-stain electron microscopy; complex purified with Strep XT resin and GFP nanotrap, in LMNG/CHS, about 0.02 mg/ml, 1% uranyl formate; 2D class averages; both purified

Chains of the proteins cited; added tags and fusions are not shown. Lines headed by an entry give the natural chain unless they say otherwise; changes in a name come on top.
UniProt Q91WV7: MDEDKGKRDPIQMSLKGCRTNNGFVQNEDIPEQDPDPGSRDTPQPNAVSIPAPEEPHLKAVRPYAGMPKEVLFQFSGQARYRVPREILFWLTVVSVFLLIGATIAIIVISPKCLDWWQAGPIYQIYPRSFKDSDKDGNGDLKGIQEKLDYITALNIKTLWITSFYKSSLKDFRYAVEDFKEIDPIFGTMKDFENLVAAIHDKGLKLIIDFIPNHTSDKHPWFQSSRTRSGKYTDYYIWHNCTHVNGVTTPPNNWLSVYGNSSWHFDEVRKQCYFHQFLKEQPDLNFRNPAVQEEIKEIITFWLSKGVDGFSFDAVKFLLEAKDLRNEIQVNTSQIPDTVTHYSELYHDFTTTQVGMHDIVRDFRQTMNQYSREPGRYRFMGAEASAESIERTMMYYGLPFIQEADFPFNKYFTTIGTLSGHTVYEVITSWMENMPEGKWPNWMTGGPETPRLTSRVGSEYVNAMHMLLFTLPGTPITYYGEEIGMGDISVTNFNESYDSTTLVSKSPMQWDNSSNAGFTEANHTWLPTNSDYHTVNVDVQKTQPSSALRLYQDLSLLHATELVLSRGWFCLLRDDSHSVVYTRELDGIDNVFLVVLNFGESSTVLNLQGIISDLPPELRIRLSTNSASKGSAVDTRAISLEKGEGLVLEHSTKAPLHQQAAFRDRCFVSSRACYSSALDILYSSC
UniProt Q9QXA6: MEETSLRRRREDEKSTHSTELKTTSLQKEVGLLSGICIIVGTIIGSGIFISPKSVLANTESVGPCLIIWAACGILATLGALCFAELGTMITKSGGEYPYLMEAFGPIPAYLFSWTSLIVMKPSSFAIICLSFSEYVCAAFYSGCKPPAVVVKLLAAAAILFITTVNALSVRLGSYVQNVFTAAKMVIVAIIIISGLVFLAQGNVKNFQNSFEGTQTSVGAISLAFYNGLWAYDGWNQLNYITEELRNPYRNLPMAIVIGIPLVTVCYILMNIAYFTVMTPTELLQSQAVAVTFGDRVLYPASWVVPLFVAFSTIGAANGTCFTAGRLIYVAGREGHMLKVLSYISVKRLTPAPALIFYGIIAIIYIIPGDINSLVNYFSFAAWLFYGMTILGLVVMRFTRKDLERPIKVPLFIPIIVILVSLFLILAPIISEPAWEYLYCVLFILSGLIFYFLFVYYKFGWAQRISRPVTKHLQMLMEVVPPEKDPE

murine b^0,+AT with Strep II tag (from UniProt Q9QXA6)
binding: binds

Source: publication PMC9110406
